# Experimental data as given in PubChem BioAssay.
# Chains of the proteins cited; added tags and fusions are not shown. Lines headed by an entry give the natural chain unless they say otherwise; changes in a name come on top.
# UniProt Q9H2X9: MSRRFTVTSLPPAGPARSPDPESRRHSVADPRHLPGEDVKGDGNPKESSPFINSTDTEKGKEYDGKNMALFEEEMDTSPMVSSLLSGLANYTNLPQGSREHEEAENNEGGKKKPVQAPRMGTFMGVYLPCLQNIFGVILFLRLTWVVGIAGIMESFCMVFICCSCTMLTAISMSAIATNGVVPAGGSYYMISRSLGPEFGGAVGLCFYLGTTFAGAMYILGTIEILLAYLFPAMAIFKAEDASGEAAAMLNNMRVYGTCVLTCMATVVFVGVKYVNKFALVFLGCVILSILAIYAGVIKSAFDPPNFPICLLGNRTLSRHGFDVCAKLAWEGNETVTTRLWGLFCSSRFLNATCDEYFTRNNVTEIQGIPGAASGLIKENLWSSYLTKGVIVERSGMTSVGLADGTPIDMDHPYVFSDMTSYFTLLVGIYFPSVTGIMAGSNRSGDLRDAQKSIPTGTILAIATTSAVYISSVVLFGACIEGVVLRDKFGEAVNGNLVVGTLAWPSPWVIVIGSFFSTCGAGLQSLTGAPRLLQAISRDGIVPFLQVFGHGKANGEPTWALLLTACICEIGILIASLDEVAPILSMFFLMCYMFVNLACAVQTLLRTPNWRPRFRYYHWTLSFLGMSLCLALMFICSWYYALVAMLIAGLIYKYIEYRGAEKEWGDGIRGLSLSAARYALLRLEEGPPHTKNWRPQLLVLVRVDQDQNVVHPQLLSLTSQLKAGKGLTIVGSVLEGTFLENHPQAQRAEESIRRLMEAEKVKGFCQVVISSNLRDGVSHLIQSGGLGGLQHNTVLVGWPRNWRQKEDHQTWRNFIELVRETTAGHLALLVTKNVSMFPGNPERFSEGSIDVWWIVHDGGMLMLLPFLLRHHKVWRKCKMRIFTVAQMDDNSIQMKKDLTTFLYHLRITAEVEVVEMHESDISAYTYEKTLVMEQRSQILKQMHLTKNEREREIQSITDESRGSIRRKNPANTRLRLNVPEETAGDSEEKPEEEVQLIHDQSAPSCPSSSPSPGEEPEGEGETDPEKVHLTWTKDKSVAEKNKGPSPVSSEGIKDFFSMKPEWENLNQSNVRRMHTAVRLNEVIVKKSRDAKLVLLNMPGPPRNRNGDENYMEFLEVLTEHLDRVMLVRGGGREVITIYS
# Inconclusive results, whose numbers are uncertain, are shown with a selection of clear calls. The source made the active and inactive calls.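 Rule for the calls, unless noted: active = thallium flux slope above the same plate's solvent-only control mean plus 3 SD; inconclusive = the two replicate wells disagree; inactive = no significant difference from solvent-only control wells.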
# Columns and labels:
# [1] = biological target: Solute carrier family 12 member 5 (Homo sapiens) (UniProt Q9H2X9); experiment: retest of KCC2 transport modulators without sodium – cell-based, HEK293 KCC2, thallium flux, secondary assay, confirmation (AID 1713); details: FluoZin2 fluorescence, at 10 µM, hits give high values
# Method in brief: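 Test system: KCC2-expressing HEK cells. Medium: Sodium-free N-methylglucamine chloride buffer. Schedule: dye loading 48 min. Technique: kinetic thallium-flux fluorescence imaging.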
# [2] = FluoZin2 fluorescence counter-screen of MLSMR hits on KCC2-expressing cells (AID 1714;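 active = thallium entry rate above the same plate's blocked-transporter control wells by more than 3 SD; inconclusive = the two repeat wells disagree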;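 note: raw slope of fluorescence over initial fluorescence between 10 and 20 s after thallium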); details: HEK293-KCC2 + bumetanide/ouabain, at 10 µM, hits give high values
# Method in brief: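 Test system – KCC2-expressing HEK cells · Medium – HBSS-HEPES with ouabain and bumetanide · Reagent – thallium stimulus · Dosing – 10 µM single dose · Times – 48 min dye loading · Technique – kinetic FluoZin2 fluorescence, ex 480/em 540 nm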
# [3] = biological target: Solute carrier family 12 member 5 (Homo sapiens) (UniProt Q9H2X9); experiment: retest of KCC2 transport modulation, ouabain-free – cell-based, HEK293 KCC2, thallium flux, FluoZin2, secondary assay 2, confirmation (AID 1715;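 active = thallium flux slope more than 3 SD above or below the plate's solvent-only control mean, mostly below; inconclusive = the two repeat wells disagreed; inactive = no significant shift from solvent-only controls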;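 note: raw slope with 0.1% DMSO as baseline and bumetanide as block control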); details: HEK293-KCC2, thallium flux FluoZin2 fluorescence; at 10 µM; actives lie on both sides; F/F0 rise rate, 10–20 s post-thallium
# [4] = compound effects on native HEK Tl+ uptake – HEK cells, counterscreen 1, counter-screen for KCC2 modulator project, confirmation (AID 1716;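 active = thallium flux rate significantly above the same plate's solvent-only control wells, beyond their mean plus 3 SD; inconclusive = the two replicate wells gave conflicting results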); details: HEK293 parental cells, thallium flux FluoZin2, ouabain; at 10 µM; baseline-ratio fluorescence slope, 10–20 s after thallium
# [5] = biological target: Solute carrier family 12 member 5 (Homo sapiens) (UniProt Q9H2X9); experiment: modulation of KCC2 thallium flux in HEK cells – cell-based, ouabain, retest, confirmation (AID 1717;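 active = thallium flux slope beyond 3 SD from same-plate DMSO control mean in most replicates, usually higher, sometimes lower; inconclusive = repeat tests gave conflicting results; inactive = no significant difference from controls in most replicates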;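 note: slope of initial-normalized fluorescence between seconds 10 and 20 after thallium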); details: HEK293-KCC2, thallium flux FluoZin2 fluorescence, at 10 µM, bidirectional: low = inhibitor, high = activator
# [6] = native HEK Tl+ uptake effects, second counter-screen – HEK cells, counterscreen 2, counter-screen for KCC2 modulator project, confirmation (AID 1718;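 active = thallium flux slope above the same plate's solvent-control mean plus 3 SD in both duplicate wells; inconclusive = duplicate wells that disagreed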;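 note: run without ouabain in cells lacking the KCC2 cotransporter; slope of fluorescence scaled to its starting value between 10 and 20 s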); details: HEK293 parental, thallium flux FluoZin-2 fluorescence slope; at 10 µM
# Method in brief: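 Read-out: thallium influx rate; assay system: parental HEK cells; replication: slope calculated separately for each replicate well; signal: FluoZin2-AM fluorescence (0.5 µM), ex 480 nm, em 540 nm, kinetic 1 Hz; benchmarks: bumetanide 2 mM; schedule: overnight cell culture at 37 °C, 48 min dye loading, compound before thallium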
Structure (SMILES),normalised thallium flux (F/F0 slope) [1],normalized thallium flux [2],normalized thallium flux [3],thallium flux rate (normalised fluorescence) [4],"raw Tl+ flux slope (below DMSO = inhibition, above = activation) [5]",thallium flux slope [6]
Cc1cc(-c2cccs2)c(C#N)c(=S)[nH]1,active: 0.0242,active: 0.0343,inconclusive: 0.0415,inconclusive: 0.0186,active: 0.038,inconclusive: 0.0157
O=C1N(Cc2ccc(F)cc2)CCN1c1ccc(F)cc1,inactive: 0.00665,inconclusive: 0.00775,–,–,inconclusive: 0.0161,–
Cc1cc(NC(=S)NC(=O)c2ccco2)c2ccccc2n1,inconclusive: 0.00851,active: 0.0838,–,–,active: 0.0712,active: 0.0583
CC(C)Cn1c(SCC(=O)NC(=O)Nc2ccc3c(c2)OCCO3)nc2ccccc2c1=O,active: 0.0142,active: 0.0436,–,inconclusive: 0.0257,–,inconclusive: 0.0163
O=C(NNc1nc(-c2ccccc2)cs1)c1ccco1,inconclusive: 0.0047,inconclusive: 0.00536,–,inconclusive: 0.00864,active: 0.0123,inactive: 0.0104
N#Cc1cc2c(nc1SCC(O)CS(=O)(=O)Cc1ccccc1)CCCC2 (configuration not stated),inconclusive: 0.00566,inactive: 0.00533,–,–,inconclusive: 0.0165,–
O=C(O)c1cc([N+](=O)[O-])ccc1NCc1ccccc1Cl,inconclusive: 0.00485,active: 0.00558,–,inconclusive: 0.00626,active: 0.0115,–
O=C(CSc1ccccn1)Nc1cccc(NC(=O)CSc2ccccn2)n1,inconclusive: 0.00526,inconclusive: 0.00554,–,–,inactive: 0.0205,–
